Measured data: PubChem BioAssay AID504804 (Drosophila RNAi Screening Center, 2011)
The screen tested about 19,000 reagents; shown is a random part of those that have a named target and a result. Over the whole deposit, 47 (0.25%) got an active call. 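Signals are raw, not normalised; exact z-scores behind calls not deposited; actives needed confirmation, so some wells reaching 2 SD are inactive.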 Entries without a mark were called inactive. A plus sign joins genes that one reagent is predicted to hit. Reagent sequences are not shown.

- Test: 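dsRNAs that improve Kc cell survival under doxorubicin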 (primary screen)
- System: Drosophila Kc cells
- Reagents: long dsRNA against Drosophila genes, 0.5 µg dsRNA per well
- Duration: 96 h (48 h knock-down, then 48 h drug)
- Conditions: doxorubicin 5 µg/ml for 48 h, added 48 h after dsRNA
- Detection: 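Viability measured as cellular ATP by luminescence after 48 h knock-down then 48 h doxorubicin at 5 µg/ml; unnormalised plate counts for each replicate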
- Direction: raw ATP luminescence: higher = more viable cells, protection from doxorubicin
- Hit rule: 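Active when both duplicate wells lie at least 2 SD above the plate mean and protection is confirmed by rescreening and independent dsRNAs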

The first 6 entries, ahead of the listing:
gene	amplicon	raw ATP luminescence, replicate 1	raw ATP luminescence, replicate 2
CG3984	DRSC15530	1.11e5	74920
CG14629	DRSC18476	49560	71590
CG14325	DRSC14804	23190	26880
CG34451	DRSC09388	60087	75963
CG34451	DRSC09389	78050	86553
Hil	DRSC05989	58507	59663

Results, from the first entry:
gene	amplicon	raw ATP luminescence, replicate 1	raw ATP luminescence, replicate 2
CG3984	DRSC15530	1.11e5	74920
CG14629	DRSC18476	49560	71590
CG14325	DRSC14804	23190	26880
CG34451	DRSC09388	60087	75963
CG34451	DRSC09389	78050	86553
Hil	DRSC05989	58507	59663
CG9154	DRSC03150	1.21e5	71057
EMC6	DRSC14386	52360	56370
Prosbeta4	DRSC02603	59090	57170
Mgat4a	DRSC09326	83037	73093
Mgat4a	DRSC11070	90857	64100
CG31819	DRSC01532	2.56e5	2.55e5
CG8635	DRSC07226	56983	61340
CG4554	DRSC04473	59400	70643
CG11882	DRSC14425	30940	43720
RanBP3	DRSC14217	31183	51410
CG9302	DRSC03191	1.83e5	1.79e5
Mp	DRSC10193	50117	42630
Mp	DRSC11029	75843	94600
Mp	DRSC11030	81410	90823
CG11771	DRSC14379	35483	49423
Ada2b	DRSC16531	66153	78337
CG15306	DRSC17993	3.03e5	2.90e5
CG15306	DRSC18240	3.63e5	3.55e5
mio	DRSC00692	91520	98707
CG30377	DRSC06477	69610	69717
CG30377	DRSC06799	25753	59503
CG7220	DRSC05235	1.15e5	1.14e5
CG7220	DRSC07018	29717	60360
yellow-f	DRSC15348	1.04e5	75130
Taf8	DRSC20363	3.15e5	3.15e5
RpS14a	DRSC18710	23950	24700
or	DRSC04329	42750	60000
5PtaseI	DRSC16269	46060	45267
Rpn12	DRSC11275	63697	48537
CG31826	DRSC03357	70573	83000
CG1571	DRSC18068	26130	38730
Ccm3	DRSC15711	90640	61390
CG6409	DRSC10630	33880	35477
CG9799	DRSC16567	39880	23943
Atg17	DRSC12221	64777	52717
CG14411	DRSC19597	3.20e5	2.86e5
Egfrap	DRSC09963	70293	74230
Egfrap	DRSC09964	68677	87077
Rpn3	DRSC03318	56030	50857
Spt3	DRSC15465	42960	45523
Mgtor	DRSC05958	48863	59193
Gbeta5	DRSC17754	36280	45150
GNBP3	DRSC11170	65117	63560
SerRS	DRSC00496	97467	81393
CG43740	DRSC17994	3.30e5	2.87e5
CG12818	DRSC14556	68217	65770
CG13008	DRSC19527	3.67e5	3.43e5
CG13008	DRSC19528	3.56e5	3.35e5
Sgs7	DRSC11281	62940	62140
CG15221	DRSC19659	3.65e5	3.51e5
eff	DRSC16940	55100	55050
Arl4	DRSC17156	52130	40160
CG30484	DRSC05457	90077	1.08e5
l(2)05287	DRSC02151	72770	61740
l(2)05287	DRSC02152	61770	54060
UGP + PGRP-LF	DRSC10418	74307	64560
Lam	DRSC03359	26360	35807
CG9890	DRSC04590	56313	62740
Osi23	DRSC15074	52450	39900
CG46385	DRSC06425	21447	21517
CG46385	DRSC06557	36777	64437
retn	DRSC04679	46827	53923
RluA-1	DRSC02240	35747	79083
RluA-1	DRSC03060	40143	76673
Osi11	DRSC12282	68630	59243
CG10459	DRSC05991	32040	60793
Ptx1	DRSC16804	61890	47940
nSMase	DRSC08237	40707	30270
CG32651	DRSC18941	1.64e5	1.98e5
lbk	DRSC07178	50507	69213
SPARC	DRSC14123	53640	43630
TwdlB	DRSC16050	32090	44430
Acp76A	DRSC09665	66333	55550
CG9114	DRSC20155	2.30e5	2.47e5
CG3777	DRSC18489	1.50e5	2.15e5
ATP6AP2	DRSC16420	54727	55593
beta-Spec	DRSC20311	2.73e5	3.00e5
nbs	DRSC11373	97627	1.01e5
Dsp1	DRSC20315	33430	36790
CG1738	DRSC19772	2.88e5	3.01e5
LManII	DRSC01986	72507	57933
Rab3	DRSC07523	67353	47923
CG12920	DRSC06234	43487	73623
Syx8	DRSC10402	95597	61340
CG12177	DRSC19437	3.51e5	3.20e5
CG12828	DRSC06177	57690	77723
cher	DRSC16924	50713	45800
CG7785	DRSC16311	52450	55150
b6	DRSC18740	37430	46510
TfIIA-S-2	DRSC17791	66850	57880
mtSSB	DRSC17005	75680	84180
Tsp42Er	DRSC06183	33390	62370
CG31288	DRSC14667	63520	60110
CG13461	DRSC10008	81687	68060
CG5116	DRSC15720	2.19e5	2.22e5
CG31601	DRSC03678	81677	87620
Osi22	DRSC16442	68530	68130
Trm7-34	DRSC16171	55440	67380
CG2617	DRSC02712	62910	67840
CG12679	DRSC20493	3.55e5	2.71e5
Trp1	DRSC03465	38707	58630
